Reference: publication doi:10.1101/2020.02.01.930412
These are yes or no findings as the source states them, for the method shown. Binding seen in cells or lysates may run through a third protein. Some results given as binding are weak or reduced against the parent protein; the word gives no strength.

The chains behind the UniProt entries cited, without tags or fusion partners.
UniProt Q8BUN5: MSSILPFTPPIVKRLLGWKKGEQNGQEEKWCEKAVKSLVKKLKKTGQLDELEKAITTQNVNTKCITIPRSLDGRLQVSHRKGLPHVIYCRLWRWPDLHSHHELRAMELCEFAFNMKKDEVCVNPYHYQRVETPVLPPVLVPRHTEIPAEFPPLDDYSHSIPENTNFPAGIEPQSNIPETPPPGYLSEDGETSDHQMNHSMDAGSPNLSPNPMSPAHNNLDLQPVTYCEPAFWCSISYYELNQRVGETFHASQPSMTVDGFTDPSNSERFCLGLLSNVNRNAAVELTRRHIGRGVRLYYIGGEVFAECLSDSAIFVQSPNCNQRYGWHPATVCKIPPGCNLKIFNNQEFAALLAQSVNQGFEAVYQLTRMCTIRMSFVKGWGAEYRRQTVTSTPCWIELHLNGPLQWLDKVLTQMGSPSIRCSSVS

Molecular target: T1, Protein phosphatase 1A (mouse (endogenous in NIH-3T3)) (UniProt P49443)
T1 sequence: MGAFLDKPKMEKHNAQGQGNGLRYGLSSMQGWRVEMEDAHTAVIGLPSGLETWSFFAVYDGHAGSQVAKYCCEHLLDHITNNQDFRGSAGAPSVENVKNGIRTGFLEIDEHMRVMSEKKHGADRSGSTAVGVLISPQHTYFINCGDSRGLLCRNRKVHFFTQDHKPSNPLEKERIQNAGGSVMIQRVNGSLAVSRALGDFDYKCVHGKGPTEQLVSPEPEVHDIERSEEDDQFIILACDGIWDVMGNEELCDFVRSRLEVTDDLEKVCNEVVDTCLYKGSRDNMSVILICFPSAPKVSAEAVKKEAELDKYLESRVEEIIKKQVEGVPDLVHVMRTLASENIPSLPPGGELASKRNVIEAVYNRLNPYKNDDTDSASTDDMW
Experiment: co-IP

binding: binds
Substance: Mothers against decapentaplegic homolog 3 (from UniProt Q8BUN5 1-425)
